This is an account of results in doi:10.1101/312165.

Amino acid sequences for entries named in this document (tags omitted). Residues count along the entry.
UniProt Q00604, residues 25-133: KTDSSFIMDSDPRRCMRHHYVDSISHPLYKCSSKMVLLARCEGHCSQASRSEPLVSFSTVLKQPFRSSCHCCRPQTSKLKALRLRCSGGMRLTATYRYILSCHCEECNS

No constants are given. Whether binding was seen depends on the method and setting. Binding seen in cells or lysates may run through a third protein. These calls come from enrichment with a bait or labelling near it, and not all partners need be listed. No binding means not detected with the bait. Tags and fused reporters may be left off the sequences shown.

The target of experiment [1] is T1, retinoschisin (human (endogenous in retina)) (UniProt O15537).
T1 sequence: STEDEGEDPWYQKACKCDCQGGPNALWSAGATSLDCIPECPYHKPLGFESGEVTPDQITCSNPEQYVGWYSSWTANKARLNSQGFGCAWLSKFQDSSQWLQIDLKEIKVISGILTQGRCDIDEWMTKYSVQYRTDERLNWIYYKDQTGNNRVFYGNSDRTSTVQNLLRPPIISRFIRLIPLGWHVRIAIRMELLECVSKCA
Briefly: affinity purification with mass spectrometry.

Experiment [2] deals with norrin (human (endogenous in retina)) (UniProt Q00604). Briefly: affinity purification with mass spectrometry.

For the molecule norrin (from UniProt Q00604 25-133), the binding entry in experiment [1] is reported as “no binding”.

B1: retinoschisin (protein, UniProt O15537 24-224)
chain: T1 sequence
Regarding B1, the binding entry in experiment [2] is “no binding”.
